Measurements from patent US20220106391A1.
Residue numbers refer to the chain shown, from its start. Results are given in words; binding and its absence hold for the method and conditions named. A result given as binding can be weak or reduced; the word gives no strength.

B1: 26C08-02F06 (antibody, IgG1, V domains shown)
VH: EVKLEESGPGLVAPSQSLSITCTVSGFSLTGYGVNWVRQPPGKGLEWLGMIWGDGSTDYNSALKSRLSISKDNSKSQVFLKMNSLQTDDTARYYCARGGYDYDVSFFDYWGQGTTLTVSS
VL: DIVLTQTTSSLSASLGDRVTISCRASQDISNYLNWYQQKPDGTVKLLIYYTSRFHSGVPSRFSGSGSGTDYSLTISNLEHEDIATYFCQQGNTLPYTFGGGT
B2: 31F05-02B03 (antibody, IgG1, V domains shown)
VH: EVQLQQSGPGLVAPSQSLSITCTVSGFSLTGYGVNWVRQPPGKGLEWLGMIWGDGSTDYNSALKSRLSISKDNSKSQVFLKMNSLQTDDTARYYCARDGYYYGTTWYFDVWGAGTTVTVSS
VL: B1 VL with V3Q, L4M, V44I, F54L, H80Q, N92S, Y96R
B3: 01B12-02B08 (antibody, IgG1, V domains shown)
VH: B2 VH with Q3K, Q6E
VL: B1 VL with L4M, T7S, V44I, F54L, H80Q, N92S, Y96R
B4: 15H02-02E01 (antibody, IgG1, V domains shown)
VH: B2 VH with Q5E
VL: B1 VL with T7S, V44I, F54L, H80Q, N92S, Y96R
B5: 16G01-02F03 (antibody, IgG2a, V domains shown)
VH: EVQLQESGAELVKPGASVKLSCKASGYTFTNYWMHWVKQRPGQGLEWIGHIDPSDGETHYNQKFKDKATLTVDKSSSTAYMQLTGLTSEDSAVYYCARFLPDYWGQGTSVTVSS
VL: DIVLTQTPAIMSASPGEKVTMTCRASSSVSSIYLHWYQQKPGSSPKLWIYSTSNLASGVPARFSGSGSGTSYSLTVSSVEAEDAATYYCQLYDNSPLTFGAGT
B6: 20D11-02E10 (antibody, IgG1, V domains shown)
VH: B2 VH with Q5E, Q6E
VL: DIVITQTPLSLPVSLGDQASISCRSSQSIVHINRHTYLGWYLQKPGQSLKLLIYGVSNRFSGVPDRFSGSGSGTDFTLKISRVEAEDMGVYYCFQGTHVPFTFGSGT

These binders were tested against canine beta-NGF (cNGF) (canine) (assay: ELISA titration of purified antibody, 0.008 to 1 ug/ml; antigen cNGF per the axis label 'anti-cNGF subclone' and paragraph 307).

binding, binds:
B1
B2
B3
B4
B5
B6

Each binder was assayed against canine beta-NGF (cNGF) (canine) (assay: competitive ELISA: supernatant of the parent hybridoma well (before subcloning) pre-incubated with biotinylated cNGF (0.1 ug/ml), then added to plate-bound cTrkA-Fc; dilution not given).

binding, binds:
B1
B2
B3
B4
B5
B6
